Laboratory results reported in paper PMC11417400.
Results are given in words; binding and its absence hold for the method and conditions named. Sequences can lack the tags named with a protein.

Target: RudS_KT (tRNA 4-thiouridine desulfidase, TudS-DUF1722 fusion protein from Pseudomonas putida KT2440, PP_0741 gene product) (Pseudomonas putida KT2440) (UniProt Q88PV7)
Assay: SEC; analytical gel filtration, Superose 12 10/300 GL, 50 mM Tris-HCl pH 8, 500 mM NaCl, 10% (w/v) glycerol, aerobic conditions; calibrated with standards of 29-200 kDa; repeated three times; both purified

binding: no binding
B1: RudS_KT (tRNA 4-thiouridine desulfidase, TudS-DUF1722 fusion protein from Pseudomonas putida KT2440, PP_0741 gene product) (enzyme, UniProt Q88PV7 1-322)
chain: MHDPSAHSKPRIAISACLTGHSVRYNGGHKASDLCRKQLEQHFDWLPVCPEVAIGLGVPRDPIRLVGNPEQPEVVGTRDPGKDLTDPLRTYGEQMANELDDICGYIFMQKSPSCGLERVKVYQDNGHPAVHGGRGVYAQAFCALRPDLPVEEEGRLHDPVLRENFISRVYAYADWQRLLAEGLNRGALVRFHSRYKYLLMANNPQAYRTLGRLLGSMSKADEPQSIGPRYFSQLMQALRRCASRGTHSNVLQHLSGYFKDALTQQDKAELQAVIGQYQQGVVPLVVPLTLLKHHLRKHPDPYLQQQAYLQPHPESLGLRNAV
